Measurements reported in PubChem BioAssay AID1053208 (Peter MacCallum Cancer Centre, 2014).
Assay: 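Genes whose silencing cuts survival of bone tumour cells only with doxorubicin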 (primary screen). Cells: mouse osteosarcoma cells, early-passage culture from an engineered mouse model of fibroblastic bone tumour. Knock-down reagent: siRNA pool against mouse genes, 40 nM. Timing: about 120 h (48 h before drug, then 72 h with drug). Challenge: doxorubicin 100 nM for 72 h, roughly 30-40% inhibitory dose. Detection: 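Viability read as ATP luminescence after 72 h of 100 nM doxorubicin or none, duplicate wells averaged, scaled to non-targeting siRNA, then expressed as robust z-scores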. Direction: viability z-score with doxorubicin and doxorubicin viability vs non-targeting: higher = more viable cells under doxorubicin; viability z-score without drug: higher = more viable cells with knock-down alone; z-score of drug to no-drug ratio: higher = less drug sensitisation by knock-down. Active means: 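a pool counts as active when its viability z-score with doxorubicin is -2 or below and its z-score without drug lies between -2 and 2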.
This is a random part of about 17,000 reagents tested. 788 of all reagents (4.7%) count as active. 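Calls rest on z-score classes alone; an extra cut-off of viability at most 70% of control was not applied to them.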 A number with no mark means an inactive call.

| gene | combined z-score class | viability z-score with doxorubicin | viability z-score without drug | z-score of drug to no-drug ratio | doxorubicin viability vs non-targeting |
| --- | --- | --- | --- | --- | --- |
| Tada1 (transcriptional adaptor 1) | no change with or without drug | 0.67 | 0.84 | 0.22 | 1 |
| Or5ac19 (olfactory receptor family 5 subfamily AC member 19) | no change with or without drug | -0.34 | 0.51 | -0.56 | 0.91 |
| Sprr2g (small proline-rich protein 2G) | high cell count with doxorubicin only | 3.04 | 1.52 | 2.02 | 1.21 |
| Gabrb1 (gamma-aminobutyric acid type A receptor subunit beta 1) | high cell count with doxorubicin only | 2.47 | 0.67 | 2.14 | 1.16 |
| Shisa5 (shisa family member 5) | low cell count with doxorubicin only (active) | -2.59 | -1.52 | -1.69 | 0.71 |
| Rhbdl1 (rhomboid like 1) | low cell count with doxorubicin only (active) | -4.27 | -1.52 | -3.71 | 0.56 |
| Rhbdf1 (rhomboid 5 homolog 1) | no change with or without drug | -1.12 | -0.67 | -0.67 | 0.84 |
| Magt1 (magnesium transporter 1) | no change with or without drug | 0.67 | 0.17 | 0.67 | 1 |
| Cdhr4 (cadherin-related family member 4) | no change with or without drug | -0.67 | 1.52 | -1.46 | 0.88 |
| Tead3 (TEA domain family member 3) | no change with or without drug | 0.45 | 0.17 | 0.45 | 0.98 |
| Rbbp5 | no change with or without drug | -1.01 | -0.84 | -0.45 | 0.85 |
| Gask1a (golgi associated kinase 1A) | no change with or without drug | 0.22 | 0.17 | 0.22 | 0.96 |
| Sucla2 (succinate-Coenzyme A ligase, ADP-forming, beta subunit) | no change with or without drug | 0.22 | -0.51 | 0.67 | 0.96 |
| Klra1 (killer cell lectin-like receptor, subfamily A, member 1) | no change with or without drug | 1.12 | 1.85 | 0 | 1.04 |
| Pxylp1 (2-phosphoxylose phosphatase 1) | no change with or without drug | 0.79 | 0.51 | 0.56 | 1.01 |
| Rab12 (RAB12, member RAS oncogene family) | no change with or without drug | 1.12 | 0 | 1.24 | 1.04 |

Reprinted from the listing, 4 entries:
| gene | combined z-score class | viability z-score with doxorubicin | viability z-score without drug | z-score of drug to no-drug ratio | doxorubicin viability vs non-targeting |
| --- | --- | --- | --- | --- | --- |
| Or5ac19 (olfactory receptor family 5 subfamily AC member 19) | no change with or without drug | -0.34 | 0.51 | -0.56 | 0.91 |
| Sprr2g (small proline-rich protein 2G) | high cell count with doxorubicin only | 3.04 | 1.52 | 2.02 | 1.21 |
| Gabrb1 (gamma-aminobutyric acid type A receptor subunit beta 1) | high cell count with doxorubicin only | 2.47 | 0.67 | 2.14 | 1.16 |
| Shisa5 (shisa family member 5) | low cell count with doxorubicin only (active) | -2.59 | -1.52 | -1.69 | 0.71 |

The results go on.
| gene | combined z-score class | viability z-score with doxorubicin | viability z-score without drug | z-score of drug to no-drug ratio | doxorubicin viability vs non-targeting |
| --- | --- | --- | --- | --- | --- |
| Vmn1r44 (vomeronasal 1 receptor 44) | no change with or without drug | 1.46 | 1.52 | 0.56 | 1.07 |
| Rassf1 (Ras association (RalGDS/AF-6) domain family member 1) | no change with or without drug | 0.67 | 1.85 | -0.45 | 1 |
| Cenpb (centromere protein B) | no change with or without drug | 0.45 | -0.17 | 0.67 | 0.98 |
| Coq7 (demethyl-Q 7) | no change with or without drug | 1.01 | 1.18 | 0.34 | 1.03 |
| Or5b124 (olfactory receptor family 5 subfamily B member 124) | no change with or without drug | 0.67 | -1.18 | 1.8 | 1 |
| Telo2 (telomere maintenance 2) | no change with or without drug | -0.9 | 0.51 | -1.12 | 0.86 |
| Parp16 (poly (ADP-ribose) polymerase family, member 16) | no change with or without drug | -0.67 | 0.34 | -0.79 | 0.88 |
| Hdac2 (histone deacetylase 2) | no change with or without drug | -1.46 | 1.52 | -2.25 | 0.81 |
| Pygl (liver glycogen phosphorylase) | no change with or without drug | -0.79 | -0.17 | -0.56 | 0.87 |
| Twist2 (twist basic helix-loop-helix transcription factor 2) | no change with or without drug | -0.45 | -1.18 | 0.45 | 0.9 |
| Spata17 (spermatogenesis associated 17) | low cell count with doxorubicin only (active) | -3.37 | 0.67 | -3.71 | 0.64 |
| Wnt3 (WNT family member 3) | no change with or without drug | 0.11 | -0.17 | 0.34 | 0.95 |
| Ear10 (eosinophil-associated, ribonuclease A family, member 10) | no change with or without drug | 0.79 | 0.17 | 0.79 | 1.01 |
| Pnn (pinin) | no change with or without drug | -0.56 | 0.34 | -0.67 | 0.89 |
| Dgcr6 (DiGeorge syndrome critical region gene 6) | no change with or without drug | -0.22 | -0.67 | 0.34 | 0.92 |
| Pcdhga11 (protocadherin gamma subfamily A, 11) | no change with or without drug | -1.57 | -0.84 | -1.01 | 0.8 |
| Rcan2 (regulator of calcineurin 2) | no change with or without drug | 0 | 0.84 | -0.45 | 0.94 |
| Or5d40 (olfactory receptor family 5 subfamily D member 40) | no change with or without drug | -0.22 | -0.51 | 0.22 | 0.92 |
| A730085E03Rik (RIKEN cDNA A730085E03 gene) | no change with or without drug | 0 | -0.51 | 0.45 | 0.94 |
| Tbc1d19 (TBC1 domain family, member 19) | high cell count with doxorubicin only | 2.25 | 1.52 | 1.35 | 1.14 |
| Vgll2 (vestigial like family member 2) | no change with or without drug | 0.11 | 0.84 | -0.34 | 0.95 |
| Actr5 (ARP5 actin-related protein 5) | no change with or without drug | 1.46 | -0.17 | 1.8 | 1.07 |
| Dip2b (disco interacting protein 2 homolog B) | no change with or without drug | -0.45 | -0.17 | -0.22 | 0.9 |
| Brinp1 | high cell count without drug only | 0 | 2.19 | -1.24 | 0.94 |
| Amot (angiomotin) | no change with or without drug | -0.9 | -0.34 | -0.67 | 0.86 |
| Mcrs1 (microspherule protein 1) | no change with or without drug | 0.9 | 1.01 | 0.34 | 1.02 |
| Nup153 (nucleoporin 153) | no change with or without drug | 0.11 | -0.17 | 0.34 | 0.95 |
| Chad (chondroadherin) | no change with or without drug | -1.46 | -0.51 | -1.12 | 0.81 |
| Atp9b (ATPase, class II, type 9B) | no change with or without drug | 0 | -0.84 | 0.67 | 0.94 |
| Or8a1 (olfactory receptor family 8 subfamily A member 1) | no change with or without drug | -1.57 | -1.85 | -0.34 | 0.8 |
| Ccne2 (cyclin E2) | no change with or without drug | -0.67 | 0.17 | -0.67 | 0.88 |
| Bdp1 | low cell count with doxorubicin only (active) | -2.25 | -0.67 | -1.91 | 0.74 |
| Vps13c (vacuolar protein sorting 13C) | no change with or without drug | -0.34 | -0.17 | -0.11 | 0.91 |
| Prss34 (serine protease 34) | no change with or without drug | 0 | -1.01 | 0.9 | 0.94 |
